Like-named read-outs stand apart in the source and are kept apart here. Some of these results come from one statement about several compounds together.
Experiments:
rat CB2 receptor = target: T1, rat CB2 receptor (Rattus norvegicus, UniProt Q9QZN9); assay type: cell-based; settings: read-out: EC50 values for rat CB2 receptor, change in intracellular cAMP, CHO-K1 rCB2 cells
T1 sequence (Q9QZN9 1-360): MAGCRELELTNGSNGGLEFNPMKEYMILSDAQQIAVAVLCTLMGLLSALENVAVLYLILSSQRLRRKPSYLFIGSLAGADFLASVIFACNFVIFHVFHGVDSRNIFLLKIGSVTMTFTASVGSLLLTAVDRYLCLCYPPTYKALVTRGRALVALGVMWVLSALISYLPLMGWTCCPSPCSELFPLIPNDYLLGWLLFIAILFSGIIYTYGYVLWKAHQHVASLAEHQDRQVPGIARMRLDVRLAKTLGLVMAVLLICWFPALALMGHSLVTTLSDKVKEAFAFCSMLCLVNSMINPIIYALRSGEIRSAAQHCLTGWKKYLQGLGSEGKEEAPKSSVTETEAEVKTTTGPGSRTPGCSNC

Protein sequences, listed by entry. Tags and fused reporters are not part of them.
UniProt P34972, whole entry: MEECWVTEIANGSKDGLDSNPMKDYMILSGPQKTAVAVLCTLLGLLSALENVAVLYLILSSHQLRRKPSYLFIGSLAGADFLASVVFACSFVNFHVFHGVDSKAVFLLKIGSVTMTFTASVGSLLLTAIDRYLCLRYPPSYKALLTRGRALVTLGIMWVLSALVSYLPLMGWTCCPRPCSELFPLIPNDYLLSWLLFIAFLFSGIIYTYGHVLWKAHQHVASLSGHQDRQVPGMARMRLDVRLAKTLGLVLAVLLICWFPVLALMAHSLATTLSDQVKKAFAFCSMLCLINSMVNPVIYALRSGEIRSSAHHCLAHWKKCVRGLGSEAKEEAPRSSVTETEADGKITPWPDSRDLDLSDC

human CB2 receptor = human CB2 receptor (Homo sapiens, UniProt P34972); assay type: cell-based; settings: read-out: EC50 values for human CB2 receptor, change in intracellular cAMP, CHO-K1 hCB2 cells
[1] = bin >300 nM-3 μM, units given in the value

O=C(c1cnc2c(c1)N(S(=O)(=O)c1ccc(C(F)(F)F)cc1)CCO2)N1CCCCC1CO (racemic) [Example 72, +/− (2-(hydroxymethyl)piperidin-1-yl)(1-(4-(trifluoro-methyl)phenylsulfonyl)-2,3-dihydro-1H-pyrido [2,3-b][1,4]oxazin-7-yl) methanone]
EC50 (rat CB2 receptor; EC50 bins in nM): 30 to 300 nM
EC50 (human CB2 receptor; [1]): 300 to 3000 nM

O=C(c1cnc2c(c1)N(S(=O)(=O)c1ccccc1)CCO2)N1CCCCC1 [Example 1, (1-(phenylsulfonyl)-2,3-dihydro-1H-pyrido[2,3-b][1,4]oxazin-7-yl)(piperidin-1-yl)methanone]
EC50 (rat CB2 receptor; EC50 bins in nM): 30 to 300 nM
EC50 (human CB2 receptor; [1]): 300 to 3000 nM

O=C(NCC1CCOCC1)c1cnc2c(c1)N(S(=O)(=O)c1ccc(F)cc1)CCO2 [Example 9, 1-(4-fluorophenyl-sulfonyl)-N-((tetrahydro-2H-pyran-4-yl)methyl)-2,3-dihydro-1H-pyrido[2,3-b][1,4]oxazine-7-carboxamide]
EC50 (rat CB2 receptor; EC50 bins in nM): 30 to 300 nM
EC50 (human CB2 receptor; [1]): 300 to 3000 nM

CCN(CC)C(=O)c1cnc2c(c1)N(S(=O)(=O)c1ccc(F)cc1)CCO2 [Example 13, N,N-diethyl-1-(4-fluorophenylsulfonyl)2,3-dihydro-1H-pyrido[2,3-b][1,4]oxazine-7-carboxamide]
EC50 (rat CB2 receptor; EC50 bins in nM): 30 to 300 nM
EC50 (human CB2 receptor; EC50 bins in nM): 30 to 300 nM

O=C(NCC1CCCO1)c1cnc2c(c1)N(S(=O)(=O)c1ccc(F)cc1)CCO2 (stereo not drawn) [Example 14, 1-(4-fluorophenyl-sulfonyl)-N-((tetra-hydrofuran-2-yl)methyl)-2,3-dihydro-1H-pyrido [2,3-b][1,4]oxazine-7-carboxamide]
EC50 (rat CB2 receptor; EC50 bins in nM): 30 to 300 nM
EC50 (human CB2 receptor; [1]): 300 to 3000 nM

CC(C)(C)NC(=O)c1cnc2c(c1)N(S(=O)(=O)c1cccnc1)CCO2 [Example 16, N-tert-butyl-1-(pyridin-3-ylsulfonyl)-2,3-dihydro-1H-pyrido[2,3-b][1,4]oxazine-7-carboxamide]
EC50 (rat CB2 receptor; [1]): 300 to 3000 nM
EC50 (human CB2 receptor; bin in μM): 3000 to 30000 nM

CC(C)CS(=O)(=O)N1CCOc2ncc(C(=O)NC(C)(C)C)cc21 [Example 28, N-tert-butyl-1-(isobutylsulfonyl)-2,3-dihydro-1H-pyrido[2,3-b][1,4]oxazine-7-carboxamide]
EC50 (rat CB2 receptor; EC50 bins in nM): 30 to 300 nM
EC50 (human CB2 receptor; [1]): 300 to 3000 nM

CC(C)CS(=O)(=O)N1CCOc2ncc(C(=O)NC3CCCC3)cc21 [Example 29, N-cyclopentyl-1-(isobutylsulfonyl)-2,3-dihydro-1H-pyrido[2,3-b][1,4]oxazine-7-carboxamide]
EC50 (rat CB2 receptor; EC50 bins in nM): 30 to 300 nM
EC50 (human CB2 receptor; [1]): 300 to 3000 nM

CN(Cc1ccccc1)C(=O)c1cnc2c(c1)N(S(=O)(=O)c1ccc(F)cc1)CCO2 [Example 32, N-benzyl-1-(4-fluorophenylsulfonyl)-N-methyl-2,3-dihydro-1H-pyrido[2,3-b][1,4]oxazine-7-carboxamide]
EC50 (rat CB2 receptor; EC50 bins in nM): 30 to 300 nM
EC50 (human CB2 receptor; EC50 bins in nM): 30 to 300 nM

CN(Cc1ccccc1)C(=O)c1cnc2c(c1)N(S(=O)(=O)c1ccc(C(F)(F)F)cc1)CCO2 [Example 36, N-benzyl-N-methyl-1-(4-(trifluoromethyl)phenylsulf-onyl)-2,3-dihydro-1H-pyrido[2,3-b][1,4]oxazine-7-carboxamide]
EC50 (rat CB2 receptor; EC50 bins in nM): 30 to 300 nM
EC50 (human CB2 receptor; [1]): 300 to 3000 nM

CC(C)(CN1CCCC1)NC(=O)c1cnc2c(c1)N(S(=O)(=O)c1ccc(C(F)(F)F)cc1)CCO2 [Example 37, N-(2-methyl-1-(pyrrolidin-1-yl)propan-2-yl)-1-(4-(trifluoromethyl)phenylsulf-onyl)-2,3-dihydro-1H-pyrido[2,3-b][1,4]oxazine-7-carboxamide]
EC50 (rat CB2 receptor; EC50 bins in nM): 30 to 300 nM
EC50 (human CB2 receptor; [1]): 300 to 3000 nM

CC(C)(C)N(CCC#N)C(=O)c1cnc2c(c1)N(S(=O)(=O)c1ccc(C(F)(F)F)cc1)CCO2 [Example 41, N-tert-butyl-N-(2-cyanoethyl)-1-(4-(trifluoromethyl)phenylsulf-onyl)-2,3-dihydro-1H-pyrido[2,3-b][1,4]oxazine-7-carboxamide]
EC50 (rat CB2 receptor; EC50 bins in nM): 30 to 300 nM
EC50 (human CB2 receptor; [1]): 300 to 3000 nM

CC(C)(N)CNC(=O)c1cnc2c(c1)N(S(=O)(=O)c1ccc(C(F)(F)F)cc1)CCO2 [Example 47, N-(2-amino-2-methylpropyl)-1-(4-(trifluoromethyl)phenylsulf-onyl)-2,3-dihydro-1H-pyrido[2,3-b][1,4]oxazine-7-carboxamide]
EC50 (rat CB2 receptor; EC50 bins in nM): 30 to 300 nM
EC50 (human CB2 receptor; bin in μM): 3000 to 30000 nM

O=C(c1cnc2c(c1)N(S(=O)(=O)c1ccc(C(F)(F)F)cc1)CCO2)N1CCOCC1 [Example 50, morpholino(1-(4-(trifluoromethyl)phenylsulf-onyl)-2,3-dihydro-1H-pyrido[2,3-b][1,4]oxazin-7-yl)methanone]
EC50 (rat CB2 receptor; EC50 bins in nM): 30 to 300 nM
EC50 (human CB2 receptor; [1]): 300 to 3000 nM

COCCNC(=O)c1cnc2c(c1)N(S(=O)(=O)c1ccc(C(F)(F)F)cc1)CCO2 [Example 51, N-(2-methoxyethyl)-1-(4-(trifluoromethyl)phenysulf-onyl)-2,3-dihydro-1H-pyrido[2,3-b][1,4]oxazine-7-carboxamide]
EC50 (rat CB2 receptor; EC50 bins in nM): 30 to 300 nM
EC50 (human CB2 receptor; [1]): 300 to 3000 nM

CC(C)(C)NC(=O)c1cnc2c(c1)N(S(=O)(=O)c1ccc(Cl)cc1Cl)CCO2 [Example 54, N-tert-butyl-1-(2,4-dichlorophenylsulfonyl)-2,3-dihydro-1H-pyrido[2,3-b][1,4]oxazine-7-carboxamide]
EC50 (rat CB2 receptor; EC50 bins in nM): 30 to 300 nM
EC50 (human CB2 receptor; [1]): 300 to 3000 nM

Cc1cc(S(=O)(=O)N2CCOc3ncc(C(=O)NC(C)(C)C)cc32)c(C)s1 [Example 91, N-tert-butyl-1-(2,5-dimethylthiophen-3-ylsulfonyl)-2,3-dihydro-1H-pyrido[2,3-b][1,4]oxazine-7-carboxamide]
EC50 (rat CB2 receptor; EC50 bins in nM): 30 to 300 nM

CC(C)(C)NC(=O)c1cnc2c(c1)N(S(=O)(=O)N1CCC(c3ccccc3)CC1)CCO2 [Example 158, N-tert-butyl-1-(4-phenylpiperidin-1-ylsulfonyl)-2,3-dihydro-1H-pyrido[2,3-b][1,4]oxazine-7-carboxamide]
EC50 (rat CB2 receptor; bin in μM): 3000 to 30000 nM

CCC(C)(C)NC(=O)c1cnc2c(c1)N(S(=O)(=O)N1CCC(c3ccccc3)CC1)CCO2 [Example 159, N-tert-pentyl-1-(4-phenylpiperidin-1-ylsulfonyl)-2,3-dihydro-1H-pyrido[2,3-b][1,4]oxazine-7-carboxamide]
EC50 (rat CB2 receptor; bin in μM): 3000 to 30000 nM

CC(C)(CO)CNC(=O)c1cnc2c(c1)N(S(=O)(=O)N1CCC(c3ccccc3)CC1)CCO2 [Example 161, N-(3-hydroxy-2,2-dimethylpropyl)-1-(4-phenylpiperidin-1-ylsulfonyl)-2,3-dihydro-1H-pyrido[2,3-b][1,4]oxazine-7-carboxamide]
EC50 (rat CB2 receptor; [1]): 300 to 3000 nM

CN1CCN(S(=O)(=O)N2CCOc3ncc(C(=O)NC(C)(C)C)cc32)CC1 [Example 174, N-tert-butyl-1-(4-methylpiperazin-1-ylsulfonyl)-2,3-dihydro-1H-pyrido[2,3-b][1,4] oxazine-7-carboxamide]
EC50 (rat CB2 receptor; [1]): 300 to 3000 nM

CCC(C)(C)NC(=O)c1cnc2c(c1)N(S(=O)(=O)N1CCc3ccccc3C1)CCO2 [Example 189, 1-(3,4-dihydroisoquinolin-2(1H)-ylsulfonyl)-N-tert-pentyl-2,3-dihydro-1H-pyrido[2,3-b][1,4]oxazine-7-carboxamide]
EC50 (rat CB2 receptor; EC50 bins in nM): 30 to 300 nM

CC(C)(CO)NC(=O)c1cnc2c(c1)N(S(=O)(=O)N1CCc3ccccc3C1)CCO2 [Example 190, 1-(3,4-dihydroisoquinolin-2(1H)-ylsulfonyl)-N-(1-hydroxy-2-methylpropan-2-yl)-2,3-dihydro-1H-pyrido[2,3-b][1,4]oxazine-7-carboxamide]
EC50 (rat CB2 receptor; EC50 bins in nM): 30 to 300 nM

Source: patent US7960377B2 (priority 2008, dated 2011)
